Results deposited as PubChem BioAssay AID504774 (Drosophila RNAi Screening Center, 2011)
The deposit covers about 23,000 reagents; this is an unselected part of those that have a named target and a result. 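Values are quantile-normalised luminescence on an arbitrary scale; higher means more cells surviving MMS.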 Further read-outs or replicates are left out here.

Screen: 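Knock-downs that shift viability of MMS-exposed cells relative to untreated ones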 (primary screen)
System: Drosophila Kc167 cells
Knock-down reagent: long dsRNA against Drosophila genes, about 0.25 µg dsRNA per well
Time to read-out: about 6 days: 3 days knock-down, then 3 days with or without MMS
Challenge: methyl methanesulphonate 0.004% (w/v) for 3 days after knock-down
Measured: 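Viability in wells given MMS, read as ATP luminescence, normalised by quantiles plate by plate and averaged across replicates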
Scale: mean viability with MMS: higher = more surviving cells after MMS

Against dy (dusky) [DRSC20325], the entry reads mean viability with MMS 3.85e6. For Ravus [DRSC15126], the values are mean viability with MMS 3.59e6. Against CG34459 [DRSC06973] the deposit lists mean viability with MMS 3.62e6. Against Cpr65Aw (Cuticular protein 65Aw) [DRSC08794], the entry reads mean viability with MMS 3.40e6. tut (tumorous testis) [DRSC08909] scored mean viability with MMS 3.54e6. Against Vha14-1 (Vacuolar H[+] ATPase 14kD subunit 1) [DRSC07571], the entry reads mean viability with MMS 3.35e6.

For Lztr1 (Leucine zipper like transcription regulator 1) [DRSC18176] the deposit lists mean viability with MMS 3.62e6. With knock-down of Lztr1 (Leucine zipper like transcription regulator 1) [DRSC18647], the record shows mean viability with MMS 3.54e6. For galla-1 [DRSC05987] the deposit lists mean viability with MMS 3.67e6. UBL3 (Ubiquitin like 3) [DRSC20298] showed mean viability with MMS 3.60e6. Against UBL3 (Ubiquitin like 3) [DRSC23292] the deposit lists mean viability with MMS 3.74e6. For hpRNA:CR32205 (hairpin RNA:CR32205) [DRSC09890], the values are mean viability with MMS 3.62e6.

With knock-down of CG33257 [DRSC09917] the results were mean viability with MMS 3.60e6. ppk30 (pickpocket 30) [DRSC15302] scored mean viability with MMS 3.62e6. Knock-down of Ugt37A2 (UDP-glycosyltransferase family 37 member A2) [DRSC15861] gave: mean viability with MMS 3.42e6. With knock-down of CG14589 [DRSC04866], the record shows mean viability with MMS 3.48e6. Cox17 (Cytochrome c oxidase copper chaperone COX17) [DRSC20145] gave mean viability with MMS 3.47e6. Rph (Rabphilin) [DRSC17790] gave mean viability with MMS 3.37e6.

CG3277 [DRSC00588] scored mean viability with MMS 3.75e6. Knock-down of CG15071 [DRSC06504] gave: mean viability with MMS 3.53e6. For CG3916 [DRSC15520], the entry reads mean viability with MMS 3.57e6. CG14694 [DRSC14917] showed mean viability with MMS 3.48e6. For CG2652 [DRSC18501] the deposit lists mean viability with MMS 3.66e6. Silencing of CG2652 [DRSC22576] came out at: mean viability with MMS 3.66e6.

For Naus (Nausicaa) [DRSC06011], the entry reads mean viability with MMS 3.36e6. Silencing of Naus (Nausicaa) [DRSC06469] gave: mean viability with MMS 3.37e6. CG14628 [DRSC18626] gave mean viability with MMS 3.67e6.

6 entries already listed, arranged by “mean viability with MMS”, descending.
CG2652 [DRSC18501] | mean viability with MMS: 3.66e6
CG2652 [DRSC22576] | mean viability with MMS: 3.66e6
CG3916 [DRSC15520] | mean viability with MMS: 3.57e6
CG15071 [DRSC06504] | mean viability with MMS: 3.53e6
CG14694 [DRSC14917] | mean viability with MMS: 3.48e6
Naus (Nausicaa) [DRSC06011] | mean viability with MMS: 3.36e6

Continued.
With knock-down of CG17019 [DRSC06642], the record shows mean viability with MMS 3.27e6. With knock-down of fusl (fuseless) [DRSC02351] the results were mean viability with MMS 3.61e6. With knock-down of Ercc1 [DRSC07424], the screen gave mean viability with MMS 3.34e6. Knock-down of Klp59D (Kinesin-like protein at 59D) [DRSC04118] came out at: mean viability with MMS 3.65e6. For Lgr4 (Leucine-rich repeat-containing G protein-coupled receptor 4) [DRSC18969] the deposit lists mean viability with MMS 3.33e6. After knock-down of Lgr4 (Leucine-rich repeat-containing G protein-coupled receptor 4) [DRSC18970], the screen gave mean viability with MMS 3.33e6.

After knock-down of Lgr4 (Leucine-rich repeat-containing G protein-coupled receptor 4) [DRSC19884], the screen gave mean viability with MMS 3.58e6. Silencing of del (deadlock) [DRSC03170] came out at: mean viability with MMS 3.68e6. nab [DRSC08455] scored mean viability with MMS 3.87e6. Depletion of nab [DRSC08456] gave: mean viability with MMS 3.48e6. RNF220 (ring finger protein 220) [DRSC15652] scored mean viability with MMS 3.68e6. With knock-down of CG31948 [DRSC00740], the screen gave mean viability with MMS 3.55e6.

With knock-down of CG31782 (retired record) [DRSC01554], the record shows mean viability with MMS 3.59e6. CG31782 (retired record) [DRSC01556] scored mean viability with MMS 3.78e6. Against nxf2 (nuclear RNA export factor 2) [DRSC10403], the entry reads mean viability with MMS 3.53e6. CG1927 [DRSC08146] showed mean viability with MMS 3.56e6. With knock-down of Patr-1 (Protein associated with topo II related - 1) [DRSC14159], the screen gave mean viability with MMS 3.15e6. CG7742 [DRSC03066] gave mean viability with MMS 3.71e6.
